Assay results: patent publication US20160151389A1 (priority 2014, published 2016)
At least one structure is not confirmed: it was looked up by name or label, or the drawing left a doubt.

Experiments:
COX-2 = COX-2 expression in brain tissue of ICH mice (western blot); format: in vivo, mouse; settings: 24 hours after ICH; 30 mg/kg orally; compared to the ICH group
MMP-9 = MMP-9 activity in brain tissue of ICH mice (zymographic analysis); format: in vivo, mouse; settings: 24 hours after ICH; 30 mg/kg orally; compared to the ICH group

## CC(C)[C@@H](C)/C=C/[C@@H](C)C1CCC2C3=CCC4C[C@@H](O)CC[C@]4(C)C3=CC[C@@]21C (some centres unmarked)
COX-2
  expression level of COX-2 in the ipsilateral hemisphere: significantly reduced
MMP-9
  activity of MMP-9 in the ipsilateral hemisphere: significantly reduced
